Values from PubChem BioAssay AID1224830 (NIAID, 2016)
Screen: 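Genes whose knock-down alters the TNF-alpha reporter response to LPS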 (primary screen). System: human THP-1 monocytic leukaemia cells, TNF dual-luciferase reporter clone, PMA-differentiated to macrophage-like cells. Knock-down reagent: siRNA pool against human genes, 50 nM. Timing: LPS for 4 h, given about 3 days after siRNA transfection. Challenge: bacterial LPS (TLR4 ligand), 10 ng/ml. Measured: 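Ratio of firefly to renilla light, scaled to the plate median and expressed as a robust z-score per replicate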. Reading the numbers: TNF reporter robust z-score: higher = stronger TNF reporter response to LPS. Active means: 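Each well counts as active if its z-score is over 2.8 or under -1.5; controls are left without a call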.
The whole screen tested about 18,000 reagents; below is a part drawn at random. In the full data, about 2,900 (16%) are marked active. 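Calls are made per well; low scores hint the gene aids the LPS response, high scores that it dampens it.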 Entries without a mark were called inactive. Repeated entries: four replicate wells of each siRNA pool. Reagent sequences are not shown.

| gene | TNF reporter robust z-score |
| --- | --- |
| SLC25A16 | 0.36 |
| SLC25A16 | 1.05 |
| SLC25A16 | 0.53 |
| SLC25A16 | 0.59 |
| RFC1 (replication factor C subunit 1) | 0.77 |
| RFC1 (replication factor C subunit 1) | 1.12 |
| RFC1 (replication factor C subunit 1) | -0.23 |
| RFC1 (replication factor C subunit 1) | -0.17 |
| PTCHD3 (patched domain containing 3 (gene/pseudogene)) | -0.06 |
| PTCHD3 (patched domain containing 3 (gene/pseudogene)) | -0.25 |
| PTCHD3 (patched domain containing 3 (gene/pseudogene)) | -0.63 |
| PTCHD3 (patched domain containing 3 (gene/pseudogene)) | -0.02 |
| PDZD11 (PDZ domain containing 11) | 0.83 |
| PDZD11 (PDZ domain containing 11) | 0.46 |
| PDZD11 (PDZ domain containing 11) | 0.27 |
| PDZD11 (PDZ domain containing 11) | 0.59 |
| CHST9 (carbohydrate sulfotransferase 9) | 0.56 |
| CHST9 (carbohydrate sulfotransferase 9) | -0.42 |
| CHST9 (carbohydrate sulfotransferase 9) | 0.82 |
| CHST9 (carbohydrate sulfotransferase 9) | 1.71 |
| HPR (haptoglobin-related protein) | -0.99 |
| HPR (haptoglobin-related protein) | -1.61 (active) |
| HPR (haptoglobin-related protein) | -0.53 |
| HPR (haptoglobin-related protein) | -0.43 |
| GNAI2 (G protein subunit alpha i2) | -1.73 (active) |
| GNAI2 (G protein subunit alpha i2) | -1.05 |
| GNAI2 (G protein subunit alpha i2) | 0.83 |
| GNAI2 (G protein subunit alpha i2) | 1.65 |
| PDP2 (pyruvate dehydrogenase phosphatase catalytic subunit 2) | 0.27 |
| PDP2 (pyruvate dehydrogenase phosphatase catalytic subunit 2) | -0.96 |
| PDP2 (pyruvate dehydrogenase phosphatase catalytic subunit 2) | 0.51 |
| PDP2 (pyruvate dehydrogenase phosphatase catalytic subunit 2) | -0.9 |
| BRK1 (BRICK1 subunit of SCAR/WAVE actin nucleating complex) | 0.86 |
| BRK1 (BRICK1 subunit of SCAR/WAVE actin nucleating complex) | 2.47 |
| BRK1 (BRICK1 subunit of SCAR/WAVE actin nucleating complex) | 0.65 |
| BRK1 (BRICK1 subunit of SCAR/WAVE actin nucleating complex) | 1.94 |
| VASH1 (vasohibin 1) | -0.96 |
| VASH1 (vasohibin 1) | -1.03 |
| VASH1 (vasohibin 1) | -0.82 |
| VASH1 (vasohibin 1) | -0.74 |
| WNK4 (WNK lysine deficient protein kinase 4) | 1.4 |
| WNK4 (WNK lysine deficient protein kinase 4) | 2.06 |
| WNK4 (WNK lysine deficient protein kinase 4) | -1.21 |
| WNK4 (WNK lysine deficient protein kinase 4) | -0.68 |
| SLC25A41 | 3.43 (active) |
| SLC25A41 | 3.11 (active) |
| SLC25A41 | 1.42 |
| SLC25A41 | 2.46 |
| CALCB (calcitonin related polypeptide beta) | 1.28 |
| CALCB (calcitonin related polypeptide beta) | 0.56 |
| CALCB (calcitonin related polypeptide beta) | 0.18 |
| CALCB (calcitonin related polypeptide beta) | 0.63 |
| IRF6 (interferon regulatory factor 6) | -1.6 (active) |
| IRF6 (interferon regulatory factor 6) | -0.95 |
| IRF6 (interferon regulatory factor 6) | -0.38 |
| IRF6 (interferon regulatory factor 6) | -0.85 |
| SUPT16H (SPT16 homolog, facilitates chromatin remodeling subunit) | -0.27 |
| SUPT16H (SPT16 homolog, facilitates chromatin remodeling subunit) | 0.55 |
| SUPT16H (SPT16 homolog, facilitates chromatin remodeling subunit) | 0.8 |
| SUPT16H (SPT16 homolog, facilitates chromatin remodeling subunit) | 3.08 (active) |
| H2BC1 (H2B clustered histone 1) | 0.43 |
| H2BC1 (H2B clustered histone 1) | 0.34 |
| H2BC1 (H2B clustered histone 1) | -0.68 |
| H2BC1 (H2B clustered histone 1) | 0.5 |
| LHX2 (LIM homeobox 2) | 6.53 (active) |
| LHX2 (LIM homeobox 2) | 2.76 |
| LHX2 (LIM homeobox 2) | 5.46 (active) |
| LHX2 (LIM homeobox 2) | 1.25 |
| CSKMT (citrate synthase lysine methyltransferase) | -0.41 |
| CSKMT (citrate synthase lysine methyltransferase) | 0.29 |
| CSKMT (citrate synthase lysine methyltransferase) | -0.37 |
| CSKMT (citrate synthase lysine methyltransferase) | 0.25 |
| ZNF675 (zinc finger protein 675) | -0.02 |
| ZNF675 (zinc finger protein 675) | 0.36 |
| ZNF675 (zinc finger protein 675) | -0.42 |
| ZNF675 (zinc finger protein 675) | -0.65 |
| KLHL3 (kelch like family member 3) | -0.11 |
| KLHL3 (kelch like family member 3) | -0.08 |
| KLHL3 (kelch like family member 3) | -0.38 |
| KLHL3 (kelch like family member 3) | -0.21 |
| TKFC (triokinase and FMN cyclase) | 0.47 |
| TKFC (triokinase and FMN cyclase) | -0.33 |
| TKFC (triokinase and FMN cyclase) | 0.18 |
| TKFC (triokinase and FMN cyclase) | 0.03 |
| ZNF3 (zinc finger protein 3) | -0.16 |
| ZNF3 (zinc finger protein 3) | 0.17 |
| ZNF3 (zinc finger protein 3) | -1.34 |
| ZNF3 (zinc finger protein 3) | -1.57 (active) |
| C19orf48P (chromosome 19 open reading frame 48, pseudogene) | 2.05 |
| C19orf48P (chromosome 19 open reading frame 48, pseudogene) | 2.06 |
| C19orf48P (chromosome 19 open reading frame 48, pseudogene) | 3.05 (active) |
| C19orf48P (chromosome 19 open reading frame 48, pseudogene) | 2.01 |
| KCNJ5 (potassium inwardly rectifying channel subfamily J member 5) | 0.2 |
| KCNJ5 (potassium inwardly rectifying channel subfamily J member 5) | 3.67 (active) |
| KCNJ5 (potassium inwardly rectifying channel subfamily J member 5) | 3.47 (active) |
| KCNJ5 (potassium inwardly rectifying channel subfamily J member 5) | 3.66 (active) |
| TOGARAM1 (TOG array regulator of axonemal microtubules 1) | -1.09 |
| TOGARAM1 (TOG array regulator of axonemal microtubules 1) | -1.1 |
| TOGARAM1 (TOG array regulator of axonemal microtubules 1) | 0.22 |
| TOGARAM1 (TOG array regulator of axonemal microtubules 1) | 1.78 |
| PIH1D2 (PIH1 domain containing 2) | 0.22 |
| PIH1D2 (PIH1 domain containing 2) | 5.96 (active) |
| PIH1D2 (PIH1 domain containing 2) | 4.48 (active) |
| PIH1D2 (PIH1 domain containing 2) | 2.24 |
| ITPRIPL2 (ITPRIP like 2) | 0.23 |
| ITPRIPL2 (ITPRIP like 2) | 1.34 |
| ITPRIPL2 (ITPRIP like 2) | 0.37 |
| ITPRIPL2 (ITPRIP like 2) | 1.65 |
| RGN (regucalcin) | -0.32 |
| RGN (regucalcin) | -0.78 |
| RGN (regucalcin) | -0.86 |
| RGN (regucalcin) | -0.5 |
| INHBA (inhibin subunit beta A) | -0.11 |
| INHBA (inhibin subunit beta A) | -0.5 |
| INHBA (inhibin subunit beta A) | 0.23 |
| INHBA (inhibin subunit beta A) | -0.03 |
| ECEL1 (endothelin converting enzyme like 1) | 0.37 |
| ECEL1 (endothelin converting enzyme like 1) | -0.74 |
| ECEL1 (endothelin converting enzyme like 1) | -1.43 |
| ECEL1 (endothelin converting enzyme like 1) | 1.18 |
| UBA7 (ubiquitin like modifier activating enzyme 7) | 0.77 |
| UBA7 (ubiquitin like modifier activating enzyme 7) | 0.58 |
| UBA7 (ubiquitin like modifier activating enzyme 7) | 0.64 |
| UBA7 (ubiquitin like modifier activating enzyme 7) | 1.23 |
| OR4N5 (olfactory receptor family 4 subfamily N member 5) | -1.49 |
| OR4N5 (olfactory receptor family 4 subfamily N member 5) | 5.14 (active) |
| OR4N5 (olfactory receptor family 4 subfamily N member 5) | -1.38 |
| OR4N5 (olfactory receptor family 4 subfamily N member 5) | -1.42 |
| FUT4 (fucosyltransferase 4) | -0.93 |
| FUT4 (fucosyltransferase 4) | -0.2 |
| FUT4 (fucosyltransferase 4) | -0.76 |
| FUT4 (fucosyltransferase 4) | -0.12 |
| SEH1L (SEH1 like nucleoporin) | -1.04 |
| SEH1L (SEH1 like nucleoporin) | -0.86 |
| SEH1L (SEH1 like nucleoporin) | -1.02 |
| NR2E3 (nuclear receptor subfamily 2 group E member 3) | 0.28 |
| NR2E3 (nuclear receptor subfamily 2 group E member 3) | 0.85 |
| NR2E3 (nuclear receptor subfamily 2 group E member 3) | 0.48 |
| NR2E3 (nuclear receptor subfamily 2 group E member 3) | 0.21 |
| ZNF652 (zinc finger protein 652) | 0.13 |
| ZNF652 (zinc finger protein 652) | -0.7 |
| ZNF652 (zinc finger protein 652) | -0.26 |
| ZNF652 (zinc finger protein 652) | 1.07 |

Hits, among the entries above:
| gene | TNF reporter robust z-score |
| --- | --- |
| HPR (haptoglobin-related protein) | -1.61 (active) |
| GNAI2 (G protein subunit alpha i2) | -1.73 (active) |
| SLC25A41 | 3.43 (active) |
| SLC25A41 | 3.11 (active) |
| IRF6 (interferon regulatory factor 6) | -1.6 (active) |
| SUPT16H (SPT16 homolog, facilitates chromatin remodeling subunit) | 3.08 (active) |
| LHX2 (LIM homeobox 2) | 6.53 (active) |
| LHX2 (LIM homeobox 2) | 5.46 (active) |
| ZNF3 (zinc finger protein 3) | -1.57 (active) |
| C19orf48P (chromosome 19 open reading frame 48, pseudogene) | 3.05 (active) |
| KCNJ5 (potassium inwardly rectifying channel subfamily J member 5) | 3.67 (active) |
| KCNJ5 (potassium inwardly rectifying channel subfamily J member 5) | 3.47 (active) |
| KCNJ5 (potassium inwardly rectifying channel subfamily J member 5) | 3.66 (active) |
| PIH1D2 (PIH1 domain containing 2) | 5.96 (active) |
| PIH1D2 (PIH1 domain containing 2) | 4.48 (active) |
| OR4N5 (olfactory receptor family 4 subfamily N member 5) | 5.14 (active) |
